The target in this test is His-tagged Deinococcus radiodurans topoisomerase IB expressed from pETtopoIB in E. coli (Deinococcus radiodurans). In words: co-IP.

Results are given in words; binding and its absence hold for the method and conditions named. In cells and extracts the contact can be indirect. Binding can be weak; no strength is given. Tags and fused reporters may be left off the sequences shown.

B1: ParB2 with T18 tag, expressed in E. coli (protein, UniProt Q9RZE7 1-293)
chain: MTRRRPERRRDLLGLLGETPVDLSQANDIRALPVNELKVGSTQPRRSFDLERLSELAESIRAHGVLQPLLVRSVDGQYEIVAGERRWRAAQLAGLAEVPVVVRQLSNEQARAAALIENLQRDNLNVIDEVDGKLELIALTLGLEREEARKRLMQLLRAVPGDEHEQLDQVFRSMGETWRTFAKNKLRILNWPQPVLEALRAGLPLTLGSVVASAPPERQAELLKLAQNGASRSQLLQALQTPSQTSAVTPEHFAKVLSSKRFLSGLDTPTREALDRWLARMPERVRQAIDEQS
For the molecule B1, the binding entry was “binds”.

B2: ParB1 with T18 tag, expressed in E. coli (protein, UniProt Q9RYD8 1-288)
chain: MSKKSSLGRGLDALLTKKGEPVAQAGTGTQVQTLKIERIAQAAYQPRQVFEPESLAELAQSIREKGVLQPLLVRPRGDAFEIVAGERRWRASQLAGLTELPVMIRDLGDREALEIAIVENLQREDLGPLEEARAYQALLDQGLNQEGVAQAVGKGRSTVTNALRLLTLPEPVLRALDEGSISASHARAVLTQPEADRLWAFEQIRSRGLNVREAEALKRERGGRDKGQGAPIKVNPPRAYRQLELDLSRRTGTRVKITGEDKGRVELNYGSREELDRILQILGYEAEE
Regarding B2, the binding entry is “binds”.

Values taken from article doi:10.1101/2020.06.24.169326.
